Among the data in paper PMC12046912 are binding values, retold here.

Chains of the proteins cited; added tags and fusions are not shown. Residues count along the entry.
UniProt Q6YHK3, residues 22-1420: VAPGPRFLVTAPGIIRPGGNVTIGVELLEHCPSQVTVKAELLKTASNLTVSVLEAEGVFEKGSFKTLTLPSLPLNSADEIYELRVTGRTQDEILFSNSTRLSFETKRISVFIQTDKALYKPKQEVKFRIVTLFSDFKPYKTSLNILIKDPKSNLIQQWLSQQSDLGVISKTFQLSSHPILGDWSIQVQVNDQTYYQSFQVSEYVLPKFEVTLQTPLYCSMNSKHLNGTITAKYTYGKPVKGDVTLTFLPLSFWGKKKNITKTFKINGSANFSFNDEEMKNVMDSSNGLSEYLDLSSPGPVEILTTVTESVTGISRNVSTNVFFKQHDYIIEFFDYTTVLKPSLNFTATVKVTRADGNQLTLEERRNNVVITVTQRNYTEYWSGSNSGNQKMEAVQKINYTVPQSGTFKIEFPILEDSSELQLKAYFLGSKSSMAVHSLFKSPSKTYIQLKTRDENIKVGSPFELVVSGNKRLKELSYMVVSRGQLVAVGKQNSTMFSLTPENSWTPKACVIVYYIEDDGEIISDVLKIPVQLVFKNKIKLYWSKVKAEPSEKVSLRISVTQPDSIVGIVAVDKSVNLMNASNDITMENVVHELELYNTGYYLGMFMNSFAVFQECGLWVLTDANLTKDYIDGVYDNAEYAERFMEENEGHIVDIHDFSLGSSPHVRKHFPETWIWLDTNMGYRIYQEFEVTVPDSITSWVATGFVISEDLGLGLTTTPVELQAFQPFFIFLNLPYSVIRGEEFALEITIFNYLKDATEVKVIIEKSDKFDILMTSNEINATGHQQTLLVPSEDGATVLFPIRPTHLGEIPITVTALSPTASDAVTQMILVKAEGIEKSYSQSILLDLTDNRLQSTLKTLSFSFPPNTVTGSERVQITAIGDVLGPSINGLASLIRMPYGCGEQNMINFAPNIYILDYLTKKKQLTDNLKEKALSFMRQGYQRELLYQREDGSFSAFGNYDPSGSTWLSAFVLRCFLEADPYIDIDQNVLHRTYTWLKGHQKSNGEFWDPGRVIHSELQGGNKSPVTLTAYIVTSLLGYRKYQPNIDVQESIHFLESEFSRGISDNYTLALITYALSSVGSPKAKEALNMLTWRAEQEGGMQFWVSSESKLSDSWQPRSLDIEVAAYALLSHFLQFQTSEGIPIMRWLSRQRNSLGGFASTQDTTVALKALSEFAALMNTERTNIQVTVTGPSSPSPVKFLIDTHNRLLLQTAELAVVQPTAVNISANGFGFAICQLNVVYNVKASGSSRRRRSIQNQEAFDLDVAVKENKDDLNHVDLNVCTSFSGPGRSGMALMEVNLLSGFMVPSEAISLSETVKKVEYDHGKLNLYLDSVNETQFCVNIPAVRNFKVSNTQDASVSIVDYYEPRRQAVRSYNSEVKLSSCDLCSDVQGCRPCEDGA
UniProt P40189, residues 23-918: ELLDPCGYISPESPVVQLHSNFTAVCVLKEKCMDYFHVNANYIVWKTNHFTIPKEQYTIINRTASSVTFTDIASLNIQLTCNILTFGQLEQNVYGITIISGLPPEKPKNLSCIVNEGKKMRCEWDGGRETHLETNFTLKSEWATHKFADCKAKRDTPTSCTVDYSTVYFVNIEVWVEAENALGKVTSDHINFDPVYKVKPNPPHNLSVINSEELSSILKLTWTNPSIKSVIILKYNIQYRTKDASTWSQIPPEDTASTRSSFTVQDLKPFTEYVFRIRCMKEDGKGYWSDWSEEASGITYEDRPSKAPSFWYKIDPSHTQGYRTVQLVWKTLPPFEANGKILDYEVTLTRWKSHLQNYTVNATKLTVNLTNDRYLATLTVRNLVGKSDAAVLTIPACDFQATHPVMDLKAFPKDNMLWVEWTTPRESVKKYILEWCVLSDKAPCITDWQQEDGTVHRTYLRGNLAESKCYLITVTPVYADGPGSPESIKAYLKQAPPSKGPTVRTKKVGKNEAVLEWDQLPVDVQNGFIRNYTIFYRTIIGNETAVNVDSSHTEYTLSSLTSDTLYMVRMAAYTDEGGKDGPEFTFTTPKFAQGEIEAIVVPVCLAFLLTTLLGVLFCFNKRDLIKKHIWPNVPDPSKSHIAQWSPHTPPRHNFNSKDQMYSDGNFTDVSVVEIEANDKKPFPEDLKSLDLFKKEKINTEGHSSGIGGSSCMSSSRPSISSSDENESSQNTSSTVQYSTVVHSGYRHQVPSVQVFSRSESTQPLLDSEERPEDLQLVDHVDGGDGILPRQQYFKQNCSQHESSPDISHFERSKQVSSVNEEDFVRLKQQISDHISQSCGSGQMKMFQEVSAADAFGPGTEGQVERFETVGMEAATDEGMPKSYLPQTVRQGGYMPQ
UniProt P40763: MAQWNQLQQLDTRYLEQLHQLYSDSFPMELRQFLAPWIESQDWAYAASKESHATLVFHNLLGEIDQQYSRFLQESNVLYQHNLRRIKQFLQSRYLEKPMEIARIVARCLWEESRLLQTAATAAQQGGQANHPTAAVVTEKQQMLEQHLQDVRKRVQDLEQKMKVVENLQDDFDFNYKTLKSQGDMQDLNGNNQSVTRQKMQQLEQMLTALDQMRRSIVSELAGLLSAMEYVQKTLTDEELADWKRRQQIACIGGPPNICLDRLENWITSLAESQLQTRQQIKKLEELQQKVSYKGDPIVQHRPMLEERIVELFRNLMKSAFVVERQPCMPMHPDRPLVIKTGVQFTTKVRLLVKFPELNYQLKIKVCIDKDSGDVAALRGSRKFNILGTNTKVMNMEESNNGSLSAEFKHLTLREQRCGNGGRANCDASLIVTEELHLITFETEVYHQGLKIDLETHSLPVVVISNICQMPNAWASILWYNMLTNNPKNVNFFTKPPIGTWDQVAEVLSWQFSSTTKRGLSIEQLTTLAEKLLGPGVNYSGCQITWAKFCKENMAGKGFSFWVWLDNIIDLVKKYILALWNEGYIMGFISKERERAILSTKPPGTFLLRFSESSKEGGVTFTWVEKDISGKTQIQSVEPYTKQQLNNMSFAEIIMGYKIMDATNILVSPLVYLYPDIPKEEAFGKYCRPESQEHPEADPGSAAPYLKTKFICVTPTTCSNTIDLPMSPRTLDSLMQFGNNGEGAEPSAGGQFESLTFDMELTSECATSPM

Assay [1] concerns the target CD109 (Cluster of Differentiation 109) (human (endogenous in A431 and SCC9)) (UniProt Q6YHK3). The assay is described as follows: co-IP; as a1, after siRNA knock-down of IL6Rα (Figure S11).
For assay [2], the target named is T1, Nuclear factor erythroid 2-related factor 2 (human (endogenous in SCC9)) (UniProt Q16236).
T1 sequence: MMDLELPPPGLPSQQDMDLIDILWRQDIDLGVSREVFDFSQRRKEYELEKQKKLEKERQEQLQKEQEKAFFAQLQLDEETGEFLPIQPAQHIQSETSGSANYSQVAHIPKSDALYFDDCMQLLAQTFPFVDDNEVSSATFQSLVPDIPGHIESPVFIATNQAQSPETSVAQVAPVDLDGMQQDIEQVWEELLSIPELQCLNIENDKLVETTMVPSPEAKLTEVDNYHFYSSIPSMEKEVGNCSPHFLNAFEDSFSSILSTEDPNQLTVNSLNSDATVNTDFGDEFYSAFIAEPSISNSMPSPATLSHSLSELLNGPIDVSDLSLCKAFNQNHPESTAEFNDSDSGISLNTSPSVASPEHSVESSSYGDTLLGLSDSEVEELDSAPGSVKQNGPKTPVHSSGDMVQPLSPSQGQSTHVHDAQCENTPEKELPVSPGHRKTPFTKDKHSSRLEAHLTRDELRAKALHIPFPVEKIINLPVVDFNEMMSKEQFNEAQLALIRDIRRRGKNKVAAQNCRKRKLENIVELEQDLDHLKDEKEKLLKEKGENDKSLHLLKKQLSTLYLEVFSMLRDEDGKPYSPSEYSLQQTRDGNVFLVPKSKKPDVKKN
The experiment in a line: co-IP; endogenous proteins in total cell lysates (Pierce IP Lysis Buffer); 500 μg protein with 2.5 μg/ml antibody (anti-CD109, anti-IL6Rα, anti-STAT3 or anti-NRF2) overnight at 4 °C, Protein G magnetic beads, Western blot; control IgG; cells without or with 20 ng/ml IL-6 (25 min by the methods; overnight for STAT3-NRF2 by the legend of Fig. 7A).

These are yes or no findings as the source states them, for the method shown. Binding seen in cells or lysates may run through a third protein. Some binding calls cover weakened binding; strength is not graded here.

As for “Glycoprotein 130 (from UniProt P40189 23-918) (receptor)”, in assay [1], the binding result is recorded as “no binding (condition: after siRNA knock-down of IL6Rα)”. As for “Signal Transducer and Activator of Transcription 3 (from UniProt P40763 1-770)”, the binding entry in assay [2] was “binds”.
